Reference: patent US20040265961A1 (published 2004)

Experiments:
ERK = experiment: anti-FLAG immunoprecipitation from KSR-2-FLAG-transfected 293T lysate (about 1 mg protein), Western blot with commercial antibodies
P.Raf = experiment: anti-FLAG co-immunoprecipitation from KSR-2-FLAG-transfected 293T lysate, Western blot
P.JNK = experiment: as above
JNK = experiment: as above
P.ERK = experiment: as above

binding (ERK): no binding
binding (P.Raf): binds
binding (P.JNK): binds
binding (JNK): binds
binding (P.ERK): binds
B1: hKSR-2-FLAG (full-length human KSR-2 with the FLAG epitope at its carboxyl terminus) (protein)
chain: MTDEQVCETVEKYGANREECARLNASLSCLRNVHMSGGNLSKQDWTIQWPTTETGKENNPVCPPEPTPWIRTHLSQSPRVPSKCVQHYCHTSPTPGAPVYTHVDRLTVDAYPGLCPPPPLESGHRSLPPSPRQRHAVRTPPRTPNIVTTVTPPGTPPMRKKNKLKPPGTPPPSSRKLIHLIPGFTALHRSKSHEFQLGHRVDEAHTPKAKKKSKPLNLKIHSSVGSCENIPSQQRSPLLSERSLRSFFVGHAPFLPSTPPVHTEANFSANTLSVPRWSPQIPRRDLGNSIKHRFSTKYWMSQTCTVCGKGMLFGLKCKNCKLKCHNKCTKEAPPCHLLIIHRGDPARLVRTESVPCDINNPLRKPPRYSDLHISQTLPKTNKINKDHIPVPYQPDSSSNPSSTTSSTPSSPAPPLPPSATPPSPLHPSPQCTRQQKNFNLPASHYYKYKQQFIFPDVVPVPETPTRAPQVILHPVTSNPILEGNPLLQIEVEPTSENEEVHDEAEESEDDFEEMNLSLLSARSFPRKASQTSIFLQEWDIPFEQLEIGELIGKGRFGQVYHGRWHGEVAIRLIDIERDNEDQLKAFKREVMAYRQTRHENVVLFMGACMSPPHLAIITSLCKGRTLYSVVRDAKIVLDVNKTRQIAQEIVKGMGYLHAKGILHKDLKSKNVFYDNGKVVITDFGLFSISGVLQAGRREDKLRIQNGWLCHLAPEIIRQLSPDTEEDKLPFSKHSDVFALGTIWYELHAREWPFKTQPAEAIIWQMGTGMKPNLSQIGMGKEISDILLFCWAFEQEERPTFTKLMDMLEKLPKRNRRLSHPGHFWKSAELDYKDDDDK

No constants are given. Whether binding was seen depends on the method and setting. For some assays here: Binding seen in cells or lysates may run through a third protein. For some assays here: A result given as binding can be weak or reduced; the word gives no strength. Where a sequence is shown, tags or fusion partners need not be part of it.
